# Source: the supplement of paper PMC12823440, “Inhibitors supercharge kinase turnover through native proteolytic circuits” (Nature, 2025)
# By UniProt entry, the sequences of proteins in these tests, tags left out.
# UniProt P29317, whole entry: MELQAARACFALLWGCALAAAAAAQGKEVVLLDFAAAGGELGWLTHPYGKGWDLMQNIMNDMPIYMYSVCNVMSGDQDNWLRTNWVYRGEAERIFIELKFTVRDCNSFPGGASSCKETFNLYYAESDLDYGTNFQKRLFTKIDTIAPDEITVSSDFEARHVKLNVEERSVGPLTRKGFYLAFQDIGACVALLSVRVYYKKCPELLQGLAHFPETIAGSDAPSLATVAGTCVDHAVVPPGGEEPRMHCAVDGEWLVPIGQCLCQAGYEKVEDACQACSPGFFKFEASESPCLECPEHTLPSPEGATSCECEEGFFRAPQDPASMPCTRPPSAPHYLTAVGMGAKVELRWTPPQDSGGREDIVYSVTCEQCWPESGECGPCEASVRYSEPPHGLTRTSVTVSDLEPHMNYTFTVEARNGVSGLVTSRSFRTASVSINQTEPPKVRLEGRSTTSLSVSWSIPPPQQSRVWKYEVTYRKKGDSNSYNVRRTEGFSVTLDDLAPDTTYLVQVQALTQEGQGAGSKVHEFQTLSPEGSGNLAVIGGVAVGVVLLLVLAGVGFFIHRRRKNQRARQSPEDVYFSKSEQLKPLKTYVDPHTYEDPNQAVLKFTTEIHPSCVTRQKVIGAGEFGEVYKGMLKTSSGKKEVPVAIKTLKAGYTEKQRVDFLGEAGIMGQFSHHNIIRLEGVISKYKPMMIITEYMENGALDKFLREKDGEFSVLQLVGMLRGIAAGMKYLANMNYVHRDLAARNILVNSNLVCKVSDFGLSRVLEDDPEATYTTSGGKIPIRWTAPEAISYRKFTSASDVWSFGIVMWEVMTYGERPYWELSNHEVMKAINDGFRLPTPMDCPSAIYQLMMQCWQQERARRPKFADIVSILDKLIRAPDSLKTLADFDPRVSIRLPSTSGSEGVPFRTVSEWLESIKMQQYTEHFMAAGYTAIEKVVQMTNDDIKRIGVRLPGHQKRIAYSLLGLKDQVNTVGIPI
# UniProt P21860, whole entry: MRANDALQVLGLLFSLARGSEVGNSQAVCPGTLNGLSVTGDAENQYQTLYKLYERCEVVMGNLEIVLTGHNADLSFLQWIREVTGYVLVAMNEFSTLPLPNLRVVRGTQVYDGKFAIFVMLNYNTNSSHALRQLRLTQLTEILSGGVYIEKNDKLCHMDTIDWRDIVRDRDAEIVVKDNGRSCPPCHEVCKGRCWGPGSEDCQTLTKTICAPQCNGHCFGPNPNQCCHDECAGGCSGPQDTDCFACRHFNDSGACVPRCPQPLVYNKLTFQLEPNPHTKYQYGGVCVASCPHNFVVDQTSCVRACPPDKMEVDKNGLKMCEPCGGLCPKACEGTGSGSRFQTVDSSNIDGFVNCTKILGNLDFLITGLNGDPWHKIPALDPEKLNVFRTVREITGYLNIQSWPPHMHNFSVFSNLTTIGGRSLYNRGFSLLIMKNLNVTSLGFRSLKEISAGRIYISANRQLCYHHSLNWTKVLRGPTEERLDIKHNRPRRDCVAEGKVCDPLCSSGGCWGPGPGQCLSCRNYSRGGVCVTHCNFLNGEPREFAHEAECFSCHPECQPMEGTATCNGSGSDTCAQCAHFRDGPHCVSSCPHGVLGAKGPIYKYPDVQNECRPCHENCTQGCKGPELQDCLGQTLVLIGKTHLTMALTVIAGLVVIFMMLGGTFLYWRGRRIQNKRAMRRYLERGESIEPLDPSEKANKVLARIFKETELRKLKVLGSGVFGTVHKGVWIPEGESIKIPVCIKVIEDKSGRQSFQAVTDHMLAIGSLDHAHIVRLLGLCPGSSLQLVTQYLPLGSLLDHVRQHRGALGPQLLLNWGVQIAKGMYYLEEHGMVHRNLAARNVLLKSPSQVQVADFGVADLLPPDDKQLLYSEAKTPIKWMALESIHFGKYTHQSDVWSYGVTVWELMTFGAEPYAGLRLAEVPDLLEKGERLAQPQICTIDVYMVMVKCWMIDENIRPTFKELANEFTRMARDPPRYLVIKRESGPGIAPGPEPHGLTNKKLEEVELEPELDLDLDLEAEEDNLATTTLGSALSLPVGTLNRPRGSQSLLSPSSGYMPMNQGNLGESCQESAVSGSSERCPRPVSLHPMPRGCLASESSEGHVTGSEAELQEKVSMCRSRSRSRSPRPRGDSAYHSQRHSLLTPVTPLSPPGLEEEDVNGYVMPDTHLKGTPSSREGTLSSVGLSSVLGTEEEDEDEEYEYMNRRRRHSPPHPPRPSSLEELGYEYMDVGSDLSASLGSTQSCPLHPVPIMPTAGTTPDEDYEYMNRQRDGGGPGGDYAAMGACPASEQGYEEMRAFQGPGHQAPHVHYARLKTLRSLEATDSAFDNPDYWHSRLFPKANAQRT
# UniProt Q15303, whole entry R711C: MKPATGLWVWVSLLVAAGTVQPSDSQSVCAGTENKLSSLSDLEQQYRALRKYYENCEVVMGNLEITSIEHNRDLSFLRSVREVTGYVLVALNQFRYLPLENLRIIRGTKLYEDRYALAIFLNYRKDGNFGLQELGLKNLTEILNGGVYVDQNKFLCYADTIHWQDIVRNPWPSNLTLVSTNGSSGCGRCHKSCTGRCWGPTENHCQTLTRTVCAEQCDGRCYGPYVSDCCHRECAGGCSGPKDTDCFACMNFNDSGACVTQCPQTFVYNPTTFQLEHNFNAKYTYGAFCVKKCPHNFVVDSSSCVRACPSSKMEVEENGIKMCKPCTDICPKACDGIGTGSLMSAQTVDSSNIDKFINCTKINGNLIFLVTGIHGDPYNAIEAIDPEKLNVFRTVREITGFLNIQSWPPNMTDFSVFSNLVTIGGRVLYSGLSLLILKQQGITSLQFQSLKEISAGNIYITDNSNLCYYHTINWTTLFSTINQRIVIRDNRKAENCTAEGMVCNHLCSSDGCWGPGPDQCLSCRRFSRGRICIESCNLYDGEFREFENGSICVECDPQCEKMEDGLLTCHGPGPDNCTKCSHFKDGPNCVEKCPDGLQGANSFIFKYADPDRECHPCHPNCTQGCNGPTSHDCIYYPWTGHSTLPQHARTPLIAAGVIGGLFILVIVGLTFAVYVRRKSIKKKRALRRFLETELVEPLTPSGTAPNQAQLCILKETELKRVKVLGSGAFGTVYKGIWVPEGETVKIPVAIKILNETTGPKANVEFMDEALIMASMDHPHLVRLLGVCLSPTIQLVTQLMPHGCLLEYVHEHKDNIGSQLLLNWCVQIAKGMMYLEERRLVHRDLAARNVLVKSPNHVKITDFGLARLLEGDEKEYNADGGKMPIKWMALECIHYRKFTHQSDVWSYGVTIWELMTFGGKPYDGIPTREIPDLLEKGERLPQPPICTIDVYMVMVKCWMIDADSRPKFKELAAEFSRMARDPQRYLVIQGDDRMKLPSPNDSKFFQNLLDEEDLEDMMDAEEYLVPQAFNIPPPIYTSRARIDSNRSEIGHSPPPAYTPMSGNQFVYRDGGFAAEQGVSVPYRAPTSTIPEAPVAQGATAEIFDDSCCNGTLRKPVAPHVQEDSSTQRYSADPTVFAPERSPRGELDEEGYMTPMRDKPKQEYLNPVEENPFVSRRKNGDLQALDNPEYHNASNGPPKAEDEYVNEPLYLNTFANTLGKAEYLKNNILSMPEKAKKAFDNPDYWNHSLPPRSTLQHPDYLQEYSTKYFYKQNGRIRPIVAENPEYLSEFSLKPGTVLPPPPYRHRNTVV
# Structures can show the parent of a compound that is named as a salt. This is one part of the list. The calls rarely recur for the same compound in another form.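 In K562 cells expressing nanoluciferase-fused kinases, luminescence was recorded at 4 h intervals between 2 and 18 h, normalized as percent of control with DMSO at 100% and a positive control at 0%. A significant (2 sigma) signal drop marks a time point as decreased. The authors' rule for a hit is not shown and takes in more than the number of time points.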
# How the values were obtained:
# Test in all cases: kinase-Nluc reporter destabilization hit call (1 = scored as downregulated) (binary); higher = compound decreases kinase abundance
# Details in all cases: K562; 2-18 h
# EGFR = EGFR (UniProt P00533)
# EGFR_G719S = EGFR_G719S (UniProt P00533)
# EGFR_G719S_T790M = EGFR_G719S_T790M (UniProt P00533)
# EGFR_L718V = EGFR_L718V (UniProt P00533)
# EGFR_L858R = EGFR_L858R (UniProt P00533)
# EGFR_L861Q = EGFR_L861Q (UniProt P00533)
# EGFR_T790M = EGFR_T790M (UniProt P00533)
# EPHA2 = EPHA2 (UniProt P29317)
# ERBB3 = ERBB3 (UniProt P21860)
# [1] = biological target: ERBB4_R711C (clone: ERBB4_mut) (UniProt Q15303)
Compound,kinase-Nluc reporter destabilization hit call (EGFR),kinase-Nluc reporter destabilization hit call (EGFR_G719S),kinase-Nluc reporter destabilization hit call (EGFR_G719S_T790M),kinase-Nluc reporter destabilization hit call (EGFR_L718V),kinase-Nluc reporter destabilization hit call (EGFR_L858R),kinase-Nluc reporter destabilization hit call (EGFR_L861Q),kinase-Nluc reporter destabilization hit call (EGFR_T790M),kinase-Nluc reporter destabilization hit call (EPHA2),kinase-Nluc reporter destabilization hit call (ERBB3),kinase-Nluc reporter destabilization hit call [1]
O=C(O)CCc1ccc(NCc2cccc(Oc3ccccc3)c2)cc1 (10 µM),inactive: 0,inactive: 0,inactive: 0,inactive: 0,inactive: 0,inactive: 0,inactive: 0,inactive: 0,inactive: 0,inactive: 0
COc1cc(N2CCC(N3CCN(C)CC3)CC2)ccc1Nc1nc2c(c(Nc3ccccc3S(=O)(=O)NC(C)C)n1)CCN2 [Conteltinib] (10 µM),inactive: 0,inactive: 0,inactive: 0,inactive: 0,inactive: 0,inactive: 0,inactive: 0,inactive: 0,inactive: 0,inactive: 0
COc1cc(C(=O)N2CCC(N3CCN(C)CC3)CC2)ccc1Nc1ncc2c(n1)N(C)c1ccccc1C(=O)N2C (10 µM),inactive: 0,inactive: 0,inactive: 0,inactive: 0,inactive: 0,inactive: 0,inactive: 0,inactive: 0,inactive: 0,inactive: 0
CC(C)(C)c1cc(C(c2cc3c(cc2O)OCO3)N2CCOCC2)cc(C(C)(C)C)c1O (stereo not given) (2.5 µM),inactive: 0,inactive: 0,inactive: 0,inactive: 0,inactive: 0,inactive: 0,inactive: 0,inactive: 0,inactive: 0,inactive: 0
OCCN(CCO)c1ccc(C(c2ccc(Cl)cc2)c2ccc(N(CCO)CCO)cc2)cc1 (10 µM),inactive: 0,inactive: 0,inactive: 0,inactive: 0,inactive: 0,inactive: 0,inactive: 0,inactive: 0,inactive: 0,inactive: 0
C[C@@H]1COCCN1c1cc(C2([S@](C)(=N)=O)CC2)nc(-c2cc[nH]c3nccc2-3)n1 [Ceralasertib] (2.5 µM),inactive: 0,inactive: 0,inactive: 0,inactive: 0,inactive: 0,inactive: 0,inactive: 0,inactive: 0,inactive: 0,inactive: 0
C[C@@H]1COCCN1c1cc(=O)n2c(n1)N(Cc1cncc(Cl)c1)[C@H](C(F)(F)F)CC2 (10 µM),inactive: 0,inactive: 0,inactive: 0,inactive: 0,inactive: 0,inactive: 0,inactive: 0,inactive: 0,inactive: 0,inactive: 0
CC[C@@H]1C(=O)N(C)c2cnc(Nc3ccc(C(=O)N[C@H]4CC[C@H](N5CCN(CC6CC6)CC5)CC4)cc3OC)nc2N1C(C)C [Volasertib] (2.5 µM),inactive: 0,inactive: 0,inactive: 0,inactive: 0,inactive: 0,inactive: 0,inactive: 0,inactive: 0,inactive: 0,inactive: 0
COc1cnccc1Nc1nc(-c2nn(Cc3c(F)cc(OCCO)cc3F)c3ccccc23)ncc1OC (10 µM),inactive: 0,inactive: 0,inactive: 0,inactive: 0,inactive: 0,inactive: 0,inactive: 0,inactive: 0,inactive: 0,inactive: 0
Cc1nc(NC(=O)NCCc2nnn(CCF)n2)sc1-c1ccc(S(C)(=O)=O)c(F)c1 (10 µM),inactive: 0,inactive: 0,inactive: 0,inactive: 0,inactive: 0,inactive: 0,inactive: 0,inactive: 0,inactive: 0,inactive: 0
CN(C)C(=O)c1ccc(S(=O)(=O)c2ccc(NC(=O)[C@@](C)(O)C(F)(F)F)c(Cl)c2)cc1 (10 µM),inactive: 0,inactive: 0,inactive: 0,inactive: 0,inactive: 0,inactive: 0,inactive: 0,inactive: 0,inactive: 0,inactive: 0
COc1cc(C(C)=O)cc(OC)c1O [Acetosyringone] (10 µM),inactive: 0,inactive: 0,inactive: 0,inactive: 0,inactive: 0,inactive: 0,inactive: 0,inactive: 0,inactive: 0,inactive: 0
CN1CCN(CCCNc2ncc(Cl)c(-c3cc4c(C(=O)NC5CC5)cccc4s3)n2)CC1 (10 µM),inactive: 0,inactive: 0,inactive: 0,inactive: 0,inactive: 0,inactive: 0,inactive: 0,inactive: 0,inactive: 0,inactive: 0
"CC(C)C[C@H](NC(=O)[C@H](CCCCN)NC(=O)[C@H](CO)NC(=O)[C@@H](N)CC(C)C)C(N)=O [LSKL, Inhibitor of Thrombospondin (TSP-1) (TFA)] (10 µM)",inactive: 0,inactive: 0,inactive: 0,inactive: 0,inactive: 0,inactive: 0,inactive: 0,inactive: 0,inactive: 0,inactive: 0
Nc1ncc(-c2ccc(C(=O)N3CCNCC3)cc2)nc1-c1ccc(C(F)(F)F)cc1 (10 µM),inactive: 0,inactive: 0,inactive: 0,inactive: 0,inactive: 0,inactive: 0,inactive: 0,inactive: 0,inactive: 0,inactive: 0
CC(C)n1cnc2c(Nc3cccc(Cl)c3)nc(NCCO)nc21 (10 µM),inactive: 0,inactive: 0,inactive: 0,inactive: 0,inactive: 0,inactive: 0,inactive: 0,inactive: 0,inactive: 0,inactive: 0
N#Cc1ccc(-c2c(-c3ncn[nH]3)sc(N3CCOCC3)c2C#N)c(F)c1 (10 µM),inactive: 0,inactive: 0,inactive: 0,inactive: 0,inactive: 0,inactive: 0,inactive: 0,inactive: 0,inactive: 0,inactive: 0
CC(CCc1ccccn1)(CCc1ccccn1)C(=O)c1ccccc1 (10 µM),inactive: 0,inactive: 0,inactive: 0,inactive: 0,inactive: 0,inactive: 0,inactive: 0,inactive: 0,inactive: 0,inactive: 0
CNC(=O)c1ccc(-c2cnc3cnc(-c4ccccc4)cn23)cc1 (10 µM),inactive: 0,inactive: 0,inactive: 0,inactive: 0,inactive: 0,inactive: 0,inactive: 0,inactive: 0,inactive: 0,inactive: 0
COc1c(O)cc2oc3cc(O)c(CC=C(C)C)c(O)c3c(=O)c2c1CCC(C)(C)O [Garcinone D] (2.5 µM),inactive: 0,inactive: 0,inactive: 0,inactive: 0,inactive: 0,inactive: 0,inactive: 0,inactive: 0,inactive: 0,inactive: 0
N=C(N)NC(=N)NCCc1ccccc1 [Phenformin (hydrochloride)] (10 µM),inactive: 0,inactive: 0,inactive: 0,inactive: 0,inactive: 0,inactive: 0,inactive: 0,inactive: 0,inactive: 0,inactive: 0
COc1ccc(CNc2nc(N(CCO)CCO)nc3c2ncn3C(C)C)cc1 (2.5 µM),inactive: 0,inactive: 0,inactive: 0,inactive: 0,inactive: 0,inactive: 0,inactive: 0,inactive: 0,inactive: 0,inactive: 0
O=C(NOCCO)c1ccc2cncn2c1Nc1ccc(I)cc1F (10 µM),inactive: 0,inactive: 0,inactive: 0,inactive: 0,inactive: 0,inactive: 0,inactive: 0,inactive: 0,inactive: 0,inactive: 0
CCCNC(=O)c1cn2ncnc(Nc3cc(C(=O)NC4CC4)ccc3C)c2c1C (10 µM),inactive: 0,inactive: 0,inactive: 0,inactive: 0,inactive: 0,inactive: 0,inactive: 0,inactive: 0,inactive: 0,inactive: 0
CC(C)(C)C(=O)N1N=CC[C@H]1c1ccccc1 (10 µM),inactive: 0,inactive: 0,inactive: 0,inactive: 0,inactive: 0,inactive: 0,inactive: 0,inactive: 0,inactive: 0,inactive: 0
Cc1cccc(-c2[nH]ncc2-c2ccc3ncccc3n2)n1 (10 µM),inactive: 0,inactive: 0,inactive: 0,inactive: 0,inactive: 0,inactive: 0,inactive: 0,inactive: 0,inactive: 0,inactive: 0
CC1=C(CC(=O)O)c2cc(F)ccc2/C1=C\c1ccc(C(C)C)cc1 (10 µM),inactive: 0,inactive: 0,inactive: 0,inactive: 0,inactive: 0,inactive: 0,inactive: 0,inactive: 0,inactive: 0,inactive: 0
C=CC(=O)Nc1cccc(-n2c(=O)cc(C)c3cnc(Nc4ccc(OCCN(C)C)cc4OC)nc32)c1 (10 µM),inactive: 0,inactive: 0,inactive: 0,inactive: 0,inactive: 0,inactive: 0,inactive: 0,inactive: 0,inactive: 0,active: 1
Cn1ncc(Cl)c1-c1cc(C(=O)N[C@H](CN)Cc2ccc(F)c(F)c2)sc1Cl (10 µM),inactive: 0,inactive: 0,inactive: 0,inactive: 0,inactive: 0,inactive: 0,inactive: 0,inactive: 0,inactive: 0,inactive: 0
CSc1ccc(CN2CCCC(Nc3ccc4[nH]ncc4c3)C2)cc1 (stereo not given) [Rho-Kinase-IN-1] (10 µM),inactive: 0,inactive: 0,inactive: 0,inactive: 0,inactive: 0,inactive: 0,inactive: 0,inactive: 0,inactive: 0,inactive: 0

# Reprinted at random: two compounds from above, in no set order.
Compound,kinase-Nluc reporter destabilization hit call (EGFR),kinase-Nluc reporter destabilization hit call (EGFR_G719S),kinase-Nluc reporter destabilization hit call (EGFR_G719S_T790M),kinase-Nluc reporter destabilization hit call (EGFR_L718V),kinase-Nluc reporter destabilization hit call (EGFR_L858R),kinase-Nluc reporter destabilization hit call (EGFR_L861Q),kinase-Nluc reporter destabilization hit call (EGFR_T790M),kinase-Nluc reporter destabilization hit call (EPHA2),kinase-Nluc reporter destabilization hit call (ERBB3),kinase-Nluc reporter destabilization hit call [1]
CC1=C(CC(=O)O)c2cc(F)ccc2/C1=C\c1ccc(C(C)C)cc1 (10 µM),inactive: 0,inactive: 0,inactive: 0,inactive: 0,inactive: 0,inactive: 0,inactive: 0,inactive: 0,inactive: 0,inactive: 0
COc1cc(C(=O)N2CCC(N3CCN(C)CC3)CC2)ccc1Nc1ncc2c(n1)N(C)c1ccccc1C(=O)N2C (10 µM),inactive: 0,inactive: 0,inactive: 0,inactive: 0,inactive: 0,inactive: 0,inactive: 0,inactive: 0,inactive: 0,inactive: 0
